Patent US20230288411A1 (SYSMEX CORPORATION, priority 2020, published 2023)

Experiment: Evaluation of influence of D-biotin on TSH measurement system in ELISA method
Conditions: 0, 1, 10 or 100 ng/mL D-biotin added to specimen (TSH calibrator C3); signal at 0 ng/mL taken as 100%; immobilized plate with matching biotin-labeled TSH antibody

Substance | effect of D-biotin addition on TSH ELISA signal
D-streptavidin: tetrameric polypeptide of 13th to 139th amino acids of SEQ ID NO: 1 composed of D-amino acid residues | the effect due to the addition of D-biotin was hardly observed
natural core streptavidin: commercially available tetrameric natural core streptavidin (manufactured by Roche) [reference compound] | signal decreased depending on the addition concentration of D-biotin
